Data from PMC11790492 (Nature Microbiology, 2024).
The exact form of at least one protein or probe is not confirmed. At least one verdict was read from the data and is not stated in words by the source. Tags and fusion partners may be left off the protein sequences shown.

Columns and labels:
KorA (plasmid RK2) = target: T1, KorA (plasmid RK2) (UniProt P03052); test: native MS; details: 2.5-fold excess KorA displaces Eσ70; recombinant protein; protein details: C-terminal His6 (pET21b)
T1 sequence (looked up, limits assumed): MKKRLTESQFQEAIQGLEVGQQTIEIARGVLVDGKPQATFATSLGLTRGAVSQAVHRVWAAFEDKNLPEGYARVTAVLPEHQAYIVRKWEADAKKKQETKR

[1] = target: T2, KorB (plasmid RK2, expressed in Escherichia coli) (UniProt P07674); test: native MS; details: 2.5-fold excess KorB displaces Eσ70; recombinant protein; protein details: C-terminal His6 (pET21b)
T2 sequence (looked up, limits assumed): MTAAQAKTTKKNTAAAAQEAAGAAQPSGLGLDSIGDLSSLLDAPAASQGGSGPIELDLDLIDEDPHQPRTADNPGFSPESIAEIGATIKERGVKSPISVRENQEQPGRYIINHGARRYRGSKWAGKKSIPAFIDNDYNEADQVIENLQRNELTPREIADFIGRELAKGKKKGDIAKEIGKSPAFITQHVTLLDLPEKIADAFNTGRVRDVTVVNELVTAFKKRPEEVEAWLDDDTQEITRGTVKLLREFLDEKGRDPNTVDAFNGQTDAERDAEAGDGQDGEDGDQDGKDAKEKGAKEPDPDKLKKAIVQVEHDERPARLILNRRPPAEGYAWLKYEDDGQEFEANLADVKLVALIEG

GTTACGCCAAGGACGAGTTTTAGCGGCTAAAGGTGTTGACGTGCGAGAAATGTTTAGCTAAACTTCTCTCATGTGCTGGCGGCTGTCACCGCTATGTTCA (double strand) [PkorA 100 bp (nMS)]
binding result (KorA (plasmid RK2)): binds | binding result [1]: binds
